For one molecule, binding results are on record in patent US20080166295A1.

One assay has as its target T1, MR ectodomain-Fc (human) (UniProt Q8WZ75).
T1 sequence: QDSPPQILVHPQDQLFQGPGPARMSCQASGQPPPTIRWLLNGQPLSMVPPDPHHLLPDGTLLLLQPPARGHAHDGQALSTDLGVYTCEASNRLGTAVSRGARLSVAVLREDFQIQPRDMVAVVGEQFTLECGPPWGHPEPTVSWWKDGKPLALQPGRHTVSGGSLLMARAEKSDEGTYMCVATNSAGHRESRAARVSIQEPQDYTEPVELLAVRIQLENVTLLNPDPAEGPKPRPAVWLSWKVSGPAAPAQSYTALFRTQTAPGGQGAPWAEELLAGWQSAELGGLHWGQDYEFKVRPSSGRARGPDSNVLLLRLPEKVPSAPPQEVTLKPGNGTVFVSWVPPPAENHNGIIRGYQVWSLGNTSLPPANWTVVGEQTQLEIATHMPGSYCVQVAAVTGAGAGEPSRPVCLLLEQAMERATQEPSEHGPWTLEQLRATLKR
The experiment in a line: hybridoma screening ELISA.

In a further assay the target is T2, MR IgA-Fc (human) (UniProt Q8WZ75).
T2 sequence: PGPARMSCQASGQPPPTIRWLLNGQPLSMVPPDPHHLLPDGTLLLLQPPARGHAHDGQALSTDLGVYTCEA
Kind of assay: ELISA on various domains of MR.

These are yes or no findings as the source states them, for the method shown. Some binding calls cover weakened binding; strength is not graded here. Tags and fused reporters may be left off the sequences shown.

B1: MR7 antibody (antibody, V domains shown)
VH: QVKLQESGPELVKPGASVKISCKASGYSLTDYNLNWVKQNKGKSLEWIGVINPNYGTTSYNQKFKGKATLTVDQSSSTTYMQLNSLTSEDSAVYYCARGRDYFGYWGQGTTVTVSS
VL: QIVLTQSPALMSASPGEKVTMTCSASSSVSYMYWYQQKPRSSPKPWIYLTSNLASGVPARFSGSGSGTSYSLTISSMEAEDAATYYCQQWSSNPLTFGAGTKLELK
Turning to B1, the binding entry with MR ectodomain-Fc (human) and in the assay with MR IgA-Fc (human) was “binds” each time.
